# Laboratory results as given in patent US11208387B2, “Macrocyclic broad spectrum antibiotics” (Genentech, Inc., priority 2019, dated 2021).
# For at least one compound, name, drawing or mass did not settle the structure.
# Test system: isolated liver mitochondria
# Test: Mitochondrial oxygen consumption rate (OCR) assay
# Assay type: biochemical, Sprague-Dawley rats
# Settings: isolated rat liver mitochondria, state 3 (S3) respiration, glutamate/malate; Table 3
# From the text: Male Sprague-Dawley rats (8-10 weeks of age) were euthanized with an overdose of carbon dioxide. The liver was rapidly excised and placed in ice-cold phosphate-buffered saline (PBS) before isolation process. Mitochondria were isolated using the MitoCheck® Mitochondrial Isolation Kit (Cayman Chemical #701010, Ann Arbor, Mich.) according to manufacturer's instructions. In brief, approximately 10-14 grams of liver tissues were finely minced using a pair of scissors, and washed repeatedly with ice-cold PBS, followed by Mito Isolation Buffer. The minced tissues were homogenized with 30 ml Mito Homogenization Buffer in 40 ml dounce homogenizer and a smooth glass grinder. The homogenate was split into two clean 30 ml polycarbonate tubes and centrifuged at 1,000×g, 4° C., for 3 minutes. The supernatant was subjected to further centrifugation at 10,000×g, 4° C., for 10 minutes. […] Protein concentration of mitochondria was determined using a bicinchoninic acid protein assay kit (Thermo Scientific, Waltham, Mass.).
# Oxygen consumption was monitored as essentially described by Will et al., “Analysis of mitochondrial function using phosphorescent oxygen-sensitive probes,” Nature Protocols Vol. 1(6) (2006) 2563. […] Oxygen consumption was measured for 30 min at 30° C. using a spectrofluorimeter (FLUOstar Omega, BMG Labtech, Cary, N.C.). […]
smiles,measurement,value
"Cc1nc(-c2ccc3c(c2)CCC3(C)C)nc(N)c1C(=O)N[C@@H](CCN)C(=O)N(C)[C@@H]1C(=O)N[C@@H](C)C(=O)N[C@H](C(=O)O)Cc2ccc(OC[C@H](O)CN)c(c2)-c2cc1cc(OC[C@H](O)CN)c2O [Example 47, (8S,11S,14S)-18-hydroxy-11-methyl-14-[methyl-[(2S)-4-amino-2-[[4-amino-2-(1,1-dimethylindan-5-yl)-6-methyl-pyrimidine-5-carbonyl]amino]-butanoyl]amino]-10,13-dioxo-3,17-bis[(2R)-3-amino-2-hydroxy-propoxy]-9,12-diazatricyclo-[13.3.1.12,6]icosa-1(18),2(20),3,5,15(19), 16-hexaene-8-carboxylic acid]",IC50,> 100 µM
